Experimental data as given in publication PMC11604978.
No constants are given. Whether binding was seen depends on the method and setting. Binding seen in cells or lysates may run through a third protein. Some entries that bind do so weakly or less than the wild type.

T1: VE-cadherin (mouse) (mouse (endogenous in brain and primary brain ECs)) (UniProt P55284)
T1 sequence: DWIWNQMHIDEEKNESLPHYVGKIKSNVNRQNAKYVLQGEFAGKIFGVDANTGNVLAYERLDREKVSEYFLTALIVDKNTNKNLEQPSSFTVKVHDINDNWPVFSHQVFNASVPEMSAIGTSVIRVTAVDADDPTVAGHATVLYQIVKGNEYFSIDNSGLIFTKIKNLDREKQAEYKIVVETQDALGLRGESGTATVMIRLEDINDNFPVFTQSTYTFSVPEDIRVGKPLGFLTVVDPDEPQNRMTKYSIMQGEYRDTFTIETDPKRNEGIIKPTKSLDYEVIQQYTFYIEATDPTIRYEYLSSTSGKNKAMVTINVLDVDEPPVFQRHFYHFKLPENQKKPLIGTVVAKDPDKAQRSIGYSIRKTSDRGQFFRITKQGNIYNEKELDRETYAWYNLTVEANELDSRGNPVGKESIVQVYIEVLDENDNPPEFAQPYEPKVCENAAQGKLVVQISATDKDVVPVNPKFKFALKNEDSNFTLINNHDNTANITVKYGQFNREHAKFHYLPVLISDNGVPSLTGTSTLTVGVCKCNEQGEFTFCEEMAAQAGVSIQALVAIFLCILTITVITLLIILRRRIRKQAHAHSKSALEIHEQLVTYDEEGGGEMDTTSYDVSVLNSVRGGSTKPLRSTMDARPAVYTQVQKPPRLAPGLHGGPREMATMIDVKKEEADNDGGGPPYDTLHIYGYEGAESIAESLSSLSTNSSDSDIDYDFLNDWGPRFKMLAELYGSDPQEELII

T2: VE-cadherin (human (endogenous in HUVEC)) (UniProt P33151)
T2 sequence: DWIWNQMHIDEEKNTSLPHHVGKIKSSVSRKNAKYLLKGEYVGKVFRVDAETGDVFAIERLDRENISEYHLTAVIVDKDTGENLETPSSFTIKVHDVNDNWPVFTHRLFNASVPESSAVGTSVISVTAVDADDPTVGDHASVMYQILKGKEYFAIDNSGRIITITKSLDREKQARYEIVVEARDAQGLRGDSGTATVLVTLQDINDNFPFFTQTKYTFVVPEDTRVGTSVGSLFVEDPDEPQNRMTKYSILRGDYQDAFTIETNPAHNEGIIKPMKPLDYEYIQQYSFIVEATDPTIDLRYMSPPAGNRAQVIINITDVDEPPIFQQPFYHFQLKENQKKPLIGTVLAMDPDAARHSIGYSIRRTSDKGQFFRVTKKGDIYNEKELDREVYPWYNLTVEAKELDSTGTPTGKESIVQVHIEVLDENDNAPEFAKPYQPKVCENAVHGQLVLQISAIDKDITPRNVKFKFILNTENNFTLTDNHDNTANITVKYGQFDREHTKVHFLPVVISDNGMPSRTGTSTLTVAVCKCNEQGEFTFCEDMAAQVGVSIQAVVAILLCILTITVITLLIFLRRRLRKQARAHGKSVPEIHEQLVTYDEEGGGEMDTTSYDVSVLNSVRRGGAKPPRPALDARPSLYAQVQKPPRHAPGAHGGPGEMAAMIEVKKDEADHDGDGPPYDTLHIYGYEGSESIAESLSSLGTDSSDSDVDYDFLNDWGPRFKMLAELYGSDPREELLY


Assays:
[1] = biological target: T1, VE-cadherin (mouse) (mouse (endogenous in brain and primary brain ECs)); test: proximity ligation; fixed primary mouse brain ECs (pmBECs) from control animals; signal diminished in pmBECs from Flrt2 endothelial knock-out mice
[2] = biological target: T1, VE-cadherin (mouse) (mouse (endogenous in brain and primary brain ECs)); test: co-IP; wild-type mouse brain lysates (25 mM Tris HCl pH 7.4, 150 mM NaCl, 5 mM EDTA, 1% NP-40) incubated with goat anti-VE-cadherin antibody or IgG control, Dynabeads Protein G; blot for FLRT2 and VE-cadherin
[3] = biological target: T2, VE-cadherin (human (endogenous in HUVEC)); test: co-IP; HUVEC lysates (IP buffer: 50 mM Tris/HCl pH 7.4, 150 mM NaCl, 1% NP-40, 0.5% sodium deoxycholate, 1 mM EDTA) incubated with mouse anti-VE-cadherin antibody or IgG control, protein G-agarose; blot for FLRT2
[4] = biological target: T2, VE-cadherin (human (endogenous in HUVEC)); test: proximity ligation; fixed, permeabilised HUVECs on gelatin-coated coverslips; probe-conjugated goat anti-FLRT2 and anti-VE-cadherin primary antibody with PLA probe MINUS; control without VE-cadherin primary antibody

binding [1] | binding [2] | binding [3] | binding [4] | Binder
binds | binds |  |  | Fibronectin Leucine Rich Transmembrane protein (FLRT) 2 (mouse) (protein, UniProt Q8BLU0 36-660) CPSVCRCDRNFVYCNERSLTSVPLGIPEGVTVLYLHNNQINNAGFPAELHNVQSVHTVYLYGNQLDEFPMNLPKNVRVLHLQENNIQTISRAALAQLLKLEELHLDDNSISTVGVEDGAFREAISLKLLFLSKNHLSSVPVGLPVDLQELRVDENRIAVISDMAFQNLTSLERLIVDGNLLTNKGIAEGTFSHLTKLKEFSIVRNSLSHPPPDLPGTHLIRLYLQDNQINHIPLTAFANLRKLERLDISNNQLRMLTQGVFDHLSNLKQLTARNNPWFCDCSIKWVTEWLKYIPSSLNVRGFMCQGPEQVRGMAVRELNMNLLSCPTTTPGLPVFTPAPSTVSPTTQSPTLSVPSPSRGSVPPAPTPSKLPTIPDWDGRERVTPPISERIQLSIHFVNDTSIQVSWLSLFTVMAYKLTWVKMGHSLVGGIVQERIVSGEKQHLSLVNLEPRSTYRICLVPLDAFNYRTVEDTICSEATTHASYLNNGSNTASSHEQTTSHSMGSPFLLAGLIGGAVIFVLVVLLSVFCWHMHKKGRYTSQKWKYNRGRRKDDYCEAGTKKDNSILEMTETSFQIVSLNNDQLLKGDFRLQPIYTPNGGINYTDCHIPNNMRYCNSSVPDLEHCHT
 |  | binds | binds | Fibronectin Leucine Rich Transmembrane protein (FLRT) 2 (protein, UniProt O43155 36-660) CPSVCRCDRNFVYCNERSLTSVPLGIPEGVTVLYLHNNQINNAGFPAELHNVQSVHTVYLYGNQLDEFPMNLPKNVRVLHLQENNIQTISRAALAQLLKLEELHLDDNSISTVGVEDGAFREAISLKLLFLSKNHLSSVPVGLPVDLQELRVDENRIAVISDMAFQNLTSLERLIVDGNLLTNKGIAEGTFSHLTKLKEFSIVRNSLSHPPPDLPGTHLIRLYLQDNQINHIPLTAFSNLRKLERLDISNNQLRMLTQGVFDNLSNLKQLTARNNPWFCDCSIKWVTEWLKYIPSSLNVRGFMCQGPEQVRGMAVRELNMNLLSCPTTTPGLPLFTPAPSTASPTTQPPTLSIPNPSRSYTPPTPTTSKLPTIPDWDGRERVTPPISERIQLSIHFVNDTSIQVSWLSLFTVMAYKLTWVKMGHSLVGGIVQERIVSGEKQHLSLVNLEPRSTYRICLVPLDAFNYRAVEDTICSEATTHASYLNNGSNTASSHEQTTSHSMGSPFLLAGLIGGAVIFVLVVLLSVFCWHMHKKGRYTSQKWKYNRGRRKDDYCEAGTKKDNSILEMTETSFQIVSLNNDQLLKGDFRLQPIYTPNGGINYTDCHIPNNMRYCNSSVPDLEHCHT
